## Results of single-concentration screens

Measurements from “University of Dundee, Small-Polar-MMV Screening Library” (2021), ChEMBL document CHEMBL3988442.

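Assay of Toxoplasma gondii numbers, read through their beta-galactosidase reporter with a colour substrate. Compounds at 50 µM. Higher reads as fewer parasites (inferred from which compounds were picked for retests). About 18,000 compounds were tested under these conditions; 0.94% (about 170) showed 50% or more at least once.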

Each number is a percent effect as filed.
The controls that fix the scale are not given in the record; negative values are as filed.
This is an unselected part of the compounds tested.

SMILES | percent effect
Cc1ncsc1CCN(C)C(=O)[C@H]1CC[C@@H](O)CC1 | -4.393%
O=C(COC1CCCCC1)NCc1c[nH]nn1 | 40.28%
CCOC(=O)CC1CCN(C(=O)C2CCNCC2)CC1 | 3.518%
CN(C(=O)c1cccc(F)c1F)S(C)(=O)=O | 3.271%
NC[C@H]1C[C@@H]1c1ccccc1 | 8.081%
CN1CCCN(C(=O)c2cc(C3CC3)on2)CC1 | 6.094%
CCCn1c(O)nnc1SCc1cccc(OC)n1 | -2.261%
Cc1cc(C(=O)N2C[C@@H]3CCCN[C@@H]3C2)cc(C)n1 | -13.26%
CO[C@H]1CNCC1NC(=O)Cc1cccc(Cl)c1 (some centres not stated) | -2.236%
CN(Cc1nnc2ccccn12)S(C)(=O)=O | -24.17%
CN(C)C(=O)N1CCCC(C(=O)Nc2ccccn2)C1 (configuration not stated) | -16.75%
O=C(c1ccco1)N1CCC(N2CCCC2)CC1 | -19.12%
CCN(C1CCN(c2cccc(C)n2)CC1)S(C)(=O)=O | -3.372%
CC(C)C(NC(=O)N1CCCC1)c1nnc2n1CCC2 (configuration not stated) | -4.497%
CC(O)(CN)c1cccc(Cl)c1 (configuration not stated) | 0.6492%
CC(C)NS(=O)(=O)c1csc(C(N)=O)c1 | 4.123%
CCCc1cc(C(N)=O)c(NC(=O)c2ccnn2C)s1 | -61.6%
Cn1cc(S(=O)(=O)NCc2ccco2)cn1 | -1.371%
CCc1nc(CN(C)C(=O)c2cccnc2O)cs1 | 6.456%
COc1ccc(Cl)c(N2CCNCC2)c1 | 12.14%
CCc1nnc2n1CC(N)CC2 (configuration not stated) | 8.406%
Cc1ccc(NC(=O)CN(C)C)cc1C(=O)NC(C)C | -3.22%
CN1CCCN(C(=O)c2cc3c(s2)CCCC3)CC1 | 13.16%
N#Cc1ccc(NCCOc2ccccc2)nc1 | 5.225%
CCC(N)c1cccc(OC)n1 (configuration not stated) | -11.92%
Cc1n[nH]c(C)c1S(=O)(=O)N1CCC(N)CC1 | 2.469%
Cc1nn(CCO)c(NCc2cccc(F)c2)c1C | 4.89%

2 of the entries, repeated:

{"smiles": "O=C(COC1CCCCC1)NCc1c[nH]nn1", "percent effect": 40.28}
{"smiles": "CCc1nc(CN(C)C(=O)c2cccnc2O)cs1", "percent effect": 6.456}